Here are results for three substances from PMC3857619.

Chains of the proteins cited; added tags and fusions are not shown.
UniProt P26599: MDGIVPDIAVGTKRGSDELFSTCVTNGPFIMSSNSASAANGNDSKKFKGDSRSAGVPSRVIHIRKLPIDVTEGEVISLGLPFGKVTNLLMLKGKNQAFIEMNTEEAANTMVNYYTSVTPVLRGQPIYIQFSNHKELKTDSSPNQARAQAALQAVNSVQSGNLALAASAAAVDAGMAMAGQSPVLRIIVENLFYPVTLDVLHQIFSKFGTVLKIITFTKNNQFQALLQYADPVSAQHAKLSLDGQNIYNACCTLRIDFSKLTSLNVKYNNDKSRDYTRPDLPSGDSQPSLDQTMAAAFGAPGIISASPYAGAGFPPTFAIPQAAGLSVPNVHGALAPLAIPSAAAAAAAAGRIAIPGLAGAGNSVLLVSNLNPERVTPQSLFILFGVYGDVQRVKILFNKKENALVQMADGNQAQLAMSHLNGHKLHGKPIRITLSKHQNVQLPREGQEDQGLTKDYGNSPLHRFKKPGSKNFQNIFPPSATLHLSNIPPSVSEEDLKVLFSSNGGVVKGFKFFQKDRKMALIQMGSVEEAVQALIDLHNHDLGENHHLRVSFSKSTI
UniProt P17844: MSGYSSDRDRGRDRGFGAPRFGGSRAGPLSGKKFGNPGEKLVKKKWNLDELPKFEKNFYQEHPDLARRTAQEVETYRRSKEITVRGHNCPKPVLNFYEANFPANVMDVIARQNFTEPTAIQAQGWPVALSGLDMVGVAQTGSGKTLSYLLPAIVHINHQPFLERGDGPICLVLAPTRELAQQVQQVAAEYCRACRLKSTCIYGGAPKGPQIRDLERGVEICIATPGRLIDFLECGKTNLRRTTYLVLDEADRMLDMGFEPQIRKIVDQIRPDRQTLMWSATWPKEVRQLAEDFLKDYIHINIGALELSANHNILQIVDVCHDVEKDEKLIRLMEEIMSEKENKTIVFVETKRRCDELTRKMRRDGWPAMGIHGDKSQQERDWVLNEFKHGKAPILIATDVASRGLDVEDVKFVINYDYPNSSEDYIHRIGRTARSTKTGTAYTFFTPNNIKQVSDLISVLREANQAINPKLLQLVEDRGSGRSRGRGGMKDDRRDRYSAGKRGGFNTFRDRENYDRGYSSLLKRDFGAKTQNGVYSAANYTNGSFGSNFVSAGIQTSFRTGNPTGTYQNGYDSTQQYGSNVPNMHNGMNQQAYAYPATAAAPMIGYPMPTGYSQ
UniProt Q9NR30: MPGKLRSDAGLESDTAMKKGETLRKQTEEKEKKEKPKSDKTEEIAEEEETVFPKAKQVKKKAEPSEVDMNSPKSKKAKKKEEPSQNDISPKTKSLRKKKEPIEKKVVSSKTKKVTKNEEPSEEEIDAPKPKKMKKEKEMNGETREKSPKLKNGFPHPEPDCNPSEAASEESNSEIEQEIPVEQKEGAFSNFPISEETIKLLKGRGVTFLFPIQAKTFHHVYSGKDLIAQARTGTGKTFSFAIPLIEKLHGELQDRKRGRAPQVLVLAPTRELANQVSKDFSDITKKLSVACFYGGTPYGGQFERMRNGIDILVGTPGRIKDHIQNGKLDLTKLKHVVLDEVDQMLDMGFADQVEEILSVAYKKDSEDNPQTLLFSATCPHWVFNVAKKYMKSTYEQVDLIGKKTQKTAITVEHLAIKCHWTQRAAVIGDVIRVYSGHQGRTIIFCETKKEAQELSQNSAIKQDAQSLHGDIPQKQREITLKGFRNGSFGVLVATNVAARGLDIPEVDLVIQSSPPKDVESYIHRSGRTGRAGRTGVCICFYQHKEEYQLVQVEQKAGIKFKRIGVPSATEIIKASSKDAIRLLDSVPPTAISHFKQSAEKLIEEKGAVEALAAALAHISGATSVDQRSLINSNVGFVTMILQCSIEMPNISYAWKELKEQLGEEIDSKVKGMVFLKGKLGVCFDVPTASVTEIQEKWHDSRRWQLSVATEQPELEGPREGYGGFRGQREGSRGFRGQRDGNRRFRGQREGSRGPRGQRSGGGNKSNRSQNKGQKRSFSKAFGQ

These are yes or no findings as the source states them, for the method shown. In cells and extracts the contact can be indirect. A yes stands for co-enrichment or nearness to the bait. Other partners may have been found.

The target of this assay is polypyrimidine tract-binding protein (human (endogenous in MCF7 and HeLa)) (UniProt P26599). Put plainly: affinity purification with mass spectrometry; anti-PTB immunoprecipitation from nuclear and cytoplasmic lysates of MCF7 cells, mock or TRAIL for 3 h; SDS-PAGE, LC-MS/MS; three independent occasions.
As for DDX5 (from UniProt P17844 1-614), the binding entry is reported as “binds”.
Regarding DDX21 (from UniProt Q9NR30 1-783), the binding result is listed as “binds”.
For hnRNPK (from UniProt P61978 1-463), the binding entry is “binds”.
